{
  "source": "paper PMC7819943",
  "about": "“Rice protein-binding microarrays: a tool to detect cis-acting elements near promoter regions in rice”",
  "note": "This is one part of the list.",
  "data": [
    {"target": "T1, OsSMF1 (Oryza sativa, UniProt Q6ZLB0 1-436)", "T1 sequence": "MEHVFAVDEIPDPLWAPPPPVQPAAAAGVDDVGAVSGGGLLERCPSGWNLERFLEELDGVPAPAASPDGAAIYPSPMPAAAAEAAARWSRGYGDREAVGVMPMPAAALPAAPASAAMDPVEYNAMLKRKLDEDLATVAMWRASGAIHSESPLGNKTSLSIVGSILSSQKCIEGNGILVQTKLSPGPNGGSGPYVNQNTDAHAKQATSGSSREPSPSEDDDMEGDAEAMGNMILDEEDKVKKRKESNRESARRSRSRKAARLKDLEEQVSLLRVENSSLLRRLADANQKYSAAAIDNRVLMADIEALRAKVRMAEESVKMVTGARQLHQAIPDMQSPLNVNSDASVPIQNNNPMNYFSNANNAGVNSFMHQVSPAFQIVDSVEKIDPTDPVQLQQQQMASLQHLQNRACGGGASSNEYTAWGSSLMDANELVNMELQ", "experiment": "protein-binding microarray (RPBM); PBS, 2% BSA, 51.3 ng/ul salmon testes DNA, 50 uM zinc acetate, 200 nM TF, 25 C, 1 h; high values mean tight binding", "details": "protein: recombinant; tags: N-terminal polyhistidine and DsRed monomer fusion (pET32a); chain copies: 2; label: CyDye5-dUTP incorporated in the synthesized complementary strand; 3' TTTTT single-stranded linker to array surface; dsDNA, one strand shown", "outline": "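Binding signal here means per-feature fluorescence intensity in arbitrary units. The values were read on an Axon 4000B scanner after a custom Agilent array, double-stranded by primer extension with Cy5-dUTP, was incubated with 200 nM protein at 25 °C for 1 h in PBS with 2% BSA, salmon testes DNA and 50 µM zinc acetate, then washed. The proteins were transcription factors with an N-terminal polyhistidine tag and DsRed, expressed in E. coli BL21-CodonPlus and purified on Ni–NTA.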", "values": [
      {"sequence": "GTATTACCTCAGCTGCAAAGGCTATACGTAGGCTGCGAGACGGAGTCACCTAGTGCAG", "binding signal": "3220 fluorescence intensity (a.u.)"},
      {"sequence": "TAAATTTTAATTTTCTGATTGGTATGCCACGTTAGTGAAACGGAGTCACCTAGTGCAG", "binding signal": "3420 fluorescence intensity (a.u.)"},
      {"sequence": "GCCCGTCGGTGAGTGGTGACTTGCCGTTTTCGCCAATAAACGGAGTCACCTAGTGCAG", "binding signal": "6000 fluorescence intensity (a.u.)"},
      {"sequence": "TTAGCAGCCGCATCTCCAGACACAACCGATGTCATCAAGCCGGAGTCACCTAGTGCAG", "binding signal": "3920 fluorescence intensity (a.u.)"},
      {"sequence": "TAAAATAGACTTATGTGCAATATAAAGGTTTTGATTATTTCGGAGTCACCTAGTGCAG", "binding signal": "3440 fluorescence intensity (a.u.)"},
      {"sequence": "ACTTTCTGTATCTATATATACGTAAGCACGTCCTGATTCTCGGAGTCACCTAGTGCAG", "binding signal": "3230 fluorescence intensity (a.u.)"},
      {"sequence": "ACGAGAAGTGACTCGCCTGACCGACCGAACCATCCGAAAGCGGAGTCACCTAGTGCAG", "binding signal": "3410 fluorescence intensity (a.u.)"},
      {"sequence": "TTGTTAACCATCACTGCTGGGTATGCGTGGCTCAAAGGCTCGGAGTCACCTAGTGCAG", "binding signal": "3290 fluorescence intensity (a.u.)"},
      {"sequence": "ATAAAGCTAGCAACAGGTATAGGCGATGTGTGTGCTTGACCGGAGTCACCTAGTGCAG", "binding signal": "25500 fluorescence intensity (a.u.)"},
      {"sequence": "CAGCCTCTCGTTCAGGTTGACCATGACACGTTCAGGAACCCGGAGTCACCTAGTGCAG", "binding signal": "4080 fluorescence intensity (a.u.)"},
      {"sequence": "CGCCGCGCACTCGTCGAACGTCATGTTCCCGACGAGCGTCCGGAGTCACCTAGTGCAG", "binding signal": "3800 fluorescence intensity (a.u.)"},
      {"sequence": "GGATCGCCACATAATAATACCATCCCCTCCTCCCTCTCGTCGGAGTCACCTAGTGCAG", "binding signal": "3140 fluorescence intensity (a.u.)"},
      {"sequence": "AGGTTGAGTTCAAACTTCAAAGCAGCACTACTTTCATACACGGAGTCACCTAGTGCAG", "binding signal": "23100 fluorescence intensity (a.u.)"},
      {"sequence": "TGATGAGACAGGCATGGTTGATTGATGTGTGGACAAAGCTCGGAGTCACCTAGTGCAG", "binding signal": "3350 fluorescence intensity (a.u.)"},
      {"sequence": "AAGCTTACAACATGTTCTATAATTTATTTAATTCTACAAACGGAGTCACCTAGTGCAG", "binding signal": "45700 fluorescence intensity (a.u.)"},
      {"sequence": "TATCACGCTGGGACTGGTAGAATCTGATACTGATAGTTGTCGGAGTCACCTAGTGCAG", "binding signal": "4320 fluorescence intensity (a.u.)"},
      {"sequence": "ACCTTGGCCTGTTAAGTGCACAAGGCCCATGTGGCATGCCCGGAGTCACCTAGTGCAG", "binding signal": "4440 fluorescence intensity (a.u.)"},
      {"sequence": "GTGCACACTTGTACTTGTCATTGTACGTATTTTCGTCATGCGGAGTCACCTAGTGCAG", "binding signal": "4130 fluorescence intensity (a.u.)"},
      {"sequence": "AGCAAGTAGAGTACACTGCATTGGTGTTGGGAAAATGGGACGGAGTCACCTAGTGCAG", "binding signal": "20100 fluorescence intensity (a.u.)"},
      {"sequence": "TCTTATGTCAATTAGACCAAAGGGATGGATATTAAATGATCGGAGTCACCTAGTGCAG", "binding signal": "30200 fluorescence intensity (a.u.)"},
      {"sequence": "GCCTCTCAACTGCACCAGCTAATTCAGTCATCGTAAAGGACGGAGTCACCTAGTGCAG", "binding signal": "3240 fluorescence intensity (a.u.)"},
      {"sequence": "AGCGGAGTGGCCACTGTCAGCATGACCTCAAGCATCTTTTCGGAGTCACCTAGTGCAG", "binding signal": "4460 fluorescence intensity (a.u.)"},
      {"sequence": "GTTTTGAACCCAGTAGAGTCAGCAGAGAGCATCTCGACAACGGAGTCACCTAGTGCAG", "binding signal": "3380 fluorescence intensity (a.u.)"},
      {"sequence": "TAACCTGGGGTTCTCCATCGGCACGCTGCAGTACGTGGTGCGGAGTCACCTAGTGCAG", "binding signal": "4760 fluorescence intensity (a.u.)"},
      {"sequence": "ACACACACACACACATATACATACCTATATCAACCTAATTCGGAGTCACCTAGTGCAG", "binding signal": "3330 fluorescence intensity (a.u.)"},
      {"sequence": "GCTGATAACGTGTTGAATGTGGATAGAATTGATTGAGCGACGGAGTCACCTAGTGCAG", "binding signal": "4520 fluorescence intensity (a.u.)"},
      {"sequence": "CCGGCGAGAATAGCCAAGAACGCGACGCGACCACACCCAACGGAGTCACCTAGTGCAG", "binding signal": "3220 fluorescence intensity (a.u.)"},
      {"sequence": "AAAAGATGATGTCATTTCGTTACTACTCCCTTTGTCCTAGCGGAGTCACCTAGTGCAG", "binding signal": "18600 fluorescence intensity (a.u.)"},
      {"sequence": "TCCCCAGTCGCGGCCGGAGCCGACGTCGTCCCCATCCGCTCGGAGTCACCTAGTGCAG", "binding signal": "3970 fluorescence intensity (a.u.)"},
      {"sequence": "CAGGGAGTCGTCGTCACGGCTGCCATGCGGCAGAGCCCCTCGGAGTCACCTAGTGCAG", "binding signal": "3560 fluorescence intensity (a.u.)"},
      {"sequence": "CATGTTGACTCTGTTTAATTCCACATCGTCTTCCTTGATCCGGAGTCACCTAGTGCAG", "binding signal": "3220 fluorescence intensity (a.u.)"},
      {"sequence": "ACGACTCAGCCCCACCGCGCCGCCTCCGACTCCACCCCATCGGAGTCACCTAGTGCAG", "binding signal": "11700 fluorescence intensity (a.u.)"},
      {"sequence": "ATCAACAAATATCATTTGCATCGCAAGAGTTGTTGAAAGTCGGAGTCACCTAGTGCAG", "binding signal": "32200 fluorescence intensity (a.u.)"},
      {"sequence": "GGGCGAGCTCCCGCTTCTCCCCACCTGCTTCCCCGCCGCCCGGAGTCACCTAGTGCAG", "binding signal": "3440 fluorescence intensity (a.u.)"},
      {"sequence": "CAAGATAATGCCCTCCGCTAAGAGCTAAATCCATATGTCACGGAGTCACCTAGTGCAG", "binding signal": "3340 fluorescence intensity (a.u.)"},
      {"sequence": "CCCATACCCAAAGGCACGTGACGTGGACCGGACGCGTCCGCGGAGTCACCTAGTGCAG", "binding signal": "18600 fluorescence intensity (a.u.)"},
      {"sequence": "AACTATAAACTTCGGTTCGACAGTTCGGCACTCGACAATCCGGAGTCACCTAGTGCAG", "binding signal": "5190 fluorescence intensity (a.u.)"},
      {"sequence": "TTGCTATGTATGGGTATTGCTCTGTATCATGTGGGTACAACGGAGTCACCTAGTGCAG", "binding signal": "3330 fluorescence intensity (a.u.)"},
      {"sequence": "GATGGACACTAGCTAGCACCATCGGCCGTGCCGCGACGGACGGAGTCACCTAGTGCAG", "binding signal": "9610 fluorescence intensity (a.u.)"},
      {"sequence": "CATAAGGCATAAATGCTGAATCATTGTGCTGAAGCTGAACCGGAGTCACCTAGTGCAG", "binding signal": "4080 fluorescence intensity (a.u.)"},
      {"sequence": "TTTTAATTTCATAAATATTCAACAATTAAAACTAGATTTGCGGAGTCACCTAGTGCAG", "binding signal": "3300 fluorescence intensity (a.u.)"},
      {"sequence": "TTGGCGTGACTAGGCGCAATTTCTGCAAATTGGAGCTCGGCGGAGTCACCTAGTGCAG", "binding signal": "7820 fluorescence intensity (a.u.)"}
    ]}
  ]
}
